Laboratory results taken from publication PMC11126936, “Reactivating Hippo by drug compounds to suppress gastric cancer and enhance chemotherapy sensitivity” (The Journal of Biological Chemistry, 2024).
No constants are given. Whether binding was seen depends on the method and setting. For some assays here: Binding can be weak; no strength is given.

What was measured:
[1] = target: purified MST2 recombinant protein; experiment: AlphaScreen or HTRF; purified STRN3 and MST2 recombinant proteins against the same compound library, two rounds; which protein was on which bead is not told; both purified
[2] = target: purified MST2 recombinant protein; experiment: MST; Monolith NT.115, 25 °C, fluorescent-labeled protein; STRN3 and MST2 in the presence of CX; both purified

B1: STRN3 (64–145) (domain or fragment, UniProt Q13033 64-145, looked up)
chain: TIPGILHYIQHEWARFEMERAHWEVERAELQARIAFLQGERKGQENLKKDLVRRIKMLEYALKQERAKYHKLKYGTELNQGD
notes: STRN3 (striatin-3), amino acid 64-145
binding [1]: binds | binding [2]: no binding (only in the presence of CX)
